# Values from PubChem BioAssay AID493246 (Drosophila RNAi Screening Center, 2011).
# Screen: 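Identify essential fly genes by loss of cell viability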 (primary screen)
# Cells: Drosophila Kc and S2R+ cells
# Reagents: long dsRNA against Drosophila genes
# Measured: 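Cell number per well after knock-down, printed as raw plate values; calls were based on per-plate z-scores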
# Reading the numbers: Kc cell number and S2R+ cell number: higher = more cells remaining
# Rule for the call: 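Counted as a hit if cell number falls by a z-score of at least 3 within its plate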
# The screen tested about 21,000 reagents; this is an unselected part of those that have a named target and a result. In the full data, 429 (2%) were called active. 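Values are raw and not normalised between plates; calls rest on per-plate z-scores that were not deposited.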 The numbers tell different reagents against one gene apart. A plus sign joins genes that one reagent is predicted to hit. The record does not give: the amount of reagent, the time to read-out.
Gene,reagent no.,"Kc cell number, rep 1","Kc cell number, rep 2","S2R+ cell number, rep 1","S2R+ cell number, rep 2",outcome
SP1173,1,1.34e6,1.43e6,1.20e6,1.13e6,inactive
CG7720,1,1.65e6,1.67e6,1.21e6,1.29e6,inactive
CG6051,1,4.87e5,,6.89e5,,inactive
sqz,1,1.36e6,1.35e6,1.07e6,1.14e6,inactive
PGRP-SB2,1,1.64e6,1.83e6,1.32e6,1.42e6,inactive
TwdlX,1,1.26e6,1.55e6,1.12e6,1.18e6,inactive
TTLL5,1,1.62e6,1.66e6,1.31e6,1.38e6,inactive
Elys,1,1.51e6,1.59e6,9.58e5,1.07e6,inactive
hbn,1,8.78e5,9.09e5,5.70e5,2.79e5,active
hbn,2,1.65e6,1.65e6,1.06e6,1.20e6,inactive
hbn,3,1.66e6,1.66e6,1.27e6,3.47e5,inactive
Rrp1,1,1.62e6,1.63e6,1.12e6,1.29e6,inactive
tinc,1,1.46e6,1.44e6,1.12e6,1.20e6,inactive
tinc,2,1.46e6,1.47e6,1.11e6,1.24e6,inactive
tinc,3,1.48e6,1.46e6,1.01e6,1.08e6,inactive
tinc,4,1.35e6,1.39e6,1.02e6,1.13e6,inactive
CG18744,1,1.39e6,1.54e6,1.21e6,1.26e6,inactive
dlg1,1,1.17e6,1.14e6,7.85e5,9.08e5,inactive
dlg1,2,1.48e6,1.60e6,1.08e6,1.20e6,inactive
dlg1,3,1.63e6,1.64e6,1.04e6,1.12e6,inactive
dlg1,4,5.91e5,,8.06e5,,inactive
P5cr,1,1.39e6,1.36e6,1.09e6,1.20e6,inactive
CG7785,1,1.43e6,1.43e6,1.03e6,1.15e6,inactive
prt,1,1.54e6,1.55e6,9.76e5,1.08e6,inactive
Cyp4ae1,1,5.31e5,,8.13e5,,inactive
hng2,1,1.40e6,1.48e6,1.29e6,1.36e6,inactive
CG13955,1,1.79e6,1.96e6,1.31e6,1.47e6,inactive
CG1304,1,1.51e6,1.55e6,1.11e6,1.19e6,inactive
CG11089 + CG31381,1,1.19e6,1.60e6,1.12e6,1.14e6,inactive
CG11089 + CG31381,2,1.62e6,1.83e6,1.23e6,1.36e6,inactive
CG31008,1,1.23e6,1.37e6,1.03e6,1.06e6,inactive
CG10516,1,1.33e6,1.49e6,1.27e6,1.32e6,inactive
Lac,1,1.36e6,1.38e6,1.20e6,1.21e6,inactive
CG13409,1,1.28e6,1.33e6,1.02e6,1.12e6,inactive
frj,1,1.28e6,1.34e6,5.82e5,8.10e5,inactive

The list goes on; the last 2 above are carried over.
Gene,reagent no.,"Kc cell number, rep 1","Kc cell number, rep 2","S2R+ cell number, rep 1","S2R+ cell number, rep 2",outcome
CG13409,1,1.28e6,1.33e6,1.02e6,1.12e6,inactive
frj,1,1.28e6,1.34e6,5.82e5,8.10e5,inactive
betaNACtes2,1,1.54e6,1.55e6,1.08e6,1.15e6,inactive
gfzf,1,1.43e6,1.55e6,1.36e6,1.49e6,inactive
pan,1,5.49e5,,7.92e5,,inactive
CG13314,1,1.45e6,1.22e6,1.16e6,1.23e6,inactive
Gr22b,1,1.55e6,1.87e6,1.18e6,1.19e6,inactive
CG7579,1,1.44e6,1.47e6,1.27e6,1.39e6,inactive
CG12824,1,1.59e6,1.68e6,1.26e6,1.38e6,inactive
Osi17,1,1.74e6,1.94e6,1.34e6,1.61e6,inactive
Kank,1,1.48e6,1.46e6,9.99e5,1.13e6,inactive
Kank,2,1.39e6,1.43e6,9.78e5,9.53e5,inactive
CG9269,1,1.32e6,1.42e6,1.25e6,1.33e6,inactive
Edem2,1,1.88e6,1.92e6,1.35e6,1.48e6,inactive
CG14960,1,1.53e6,1.31e6,1.08e6,1.43e6,inactive
Or63a,1,1.24e6,1.42e6,1.11e6,1.28e6,inactive
CG13994,1,1.60e6,1.50e6,1.12e6,1.34e6,inactive
CG30016,1,1.41e6,1.36e6,9.89e5,1.13e6,inactive
XRCC1,1,5.67e5,,8.66e5,,inactive
rec,1,1.38e6,1.35e6,1.12e6,1.23e6,inactive
rec,2,1.32e6,1.33e6,1.09e6,1.21e6,inactive
CG46301,1,1.43e6,1.45e6,1.06e6,1.15e6,inactive
rumi,1,1.57e6,1.57e6,1.21e6,1.25e6,inactive
Eglp1,1,1.42e6,1.60e6,9.66e5,1.09e6,inactive
PMCA,1,1.15e6,1.49e6,1.04e6,1.11e6,inactive
PMCA,2,1.43e6,1.59e6,1.01e6,1.12e6,inactive
PMCA,3,6.69e5,,7.99e5,,inactive
CG1316,1,1.59e6,1.49e6,1.12e6,1.32e6,inactive
CG34174,1,1.65e6,1.62e6,1.03e6,1.18e6,inactive
tko,1,1.45e6,1.46e6,9.16e5,1.08e6,inactive
Tk,1,1.35e6,1.69e6,1.05e6,1.13e6,inactive
CG13526,1,1.66e6,1.72e6,1.23e6,1.48e6,inactive
CG6136,1,1.59e6,1.52e6,1.28e6,1.44e6,inactive
Josd,1,1.55e6,1.55e6,1.11e6,1.16e6,inactive
CG15012,1,1.36e6,1.43e6,1.17e6,1.17e6,inactive
l(3)05822,1,1.63e6,1.71e6,1.20e6,1.29e6,inactive
Usp10,1,1.34e6,1.37e6,1.13e6,1.11e6,inactive
Usp10,2,1.56e6,1.33e6,9.94e5,1.20e6,inactive
FBXO11,1,1.57e6,1.69e6,1.34e6,1.37e6,inactive
lectin-21Ca,1,1.47e6,1.49e6,9.83e5,1.12e6,inactive
CG5327,1,1.54e6,1.53e6,1.22e6,1.24e6,inactive
CG17145,1,1.65e6,1.73e6,1.27e6,1.49e6,inactive
